These are yes or no findings as the source states them, for the method shown. In cells and extracts the contact can be indirect. Some entries that bind do so weakly or less than the wild type. For part of these data: Tags and fused reporters may be left off the sequences shown.
B1: HA-JCAD (junctional protein-associated with coronary artery disease) (protein, UniProt Q9P266 1-1359)
chain: MYSVEDLLISHGYKLSRDPPASREDNPKGRQAARTGTRAGQGLQNGHEDGPAALAHRKTSAGKGHVSDSESRRSTPRGHGEPQSTSASRTSEAGFCNQPPSAWSSHPPTGNDQAYRRRGRQEARSQKPREHENLEARGMAQAHSLPVHVREGPWEVGGRSEHVMKKPVWEEELRMSGPAKWQNVSLESWNQPRKLGRQMSDGDGERLFQDLYPFIQGEHVLNSQNKGKSRSLPRVLSPESLSCTEIPIPLNERHSPKMPPYPPTCAPNLDSTRNSEKSGCSAPFPRPKFGRPLKPPSYSSHQQSRGGADSSDSQDSQQMDAYVPRHELCLSDPGLEPPVYVPPPSYRSPPQNIPNPYLEDTVPINVCGGHSQQQSPTEKAGASGQPPSGPPGTGNEYGVSPRLPQGLPAHPRPVTAYDGFVQYIPFDDPRLRHFKLAQPQGFCEDIKLDDKSYNSSPVTAQEPAHGGMQPDGAIWNPQSLIPPSGDERGLVLADSSPRWLWGQPPGDGENSGLPNQRDRCVARGQWPDVRGSQHGHTGRQVSSPYSQGESTCETQTKLKKFQTGTRTKKSSKKKMNETIFCLVSIPVKSESHLPDRDMDNNDLKPSADQKNGSDKSPALQEQSLLSMSSTDLELQALTGSMGGRTEFQKQDLGEPEEDRQTNDLSFIHLTKHRELKHSGSWPGHRYRDQQTQTSFSEEPQSSQLLPGAKLGGPSRAALSPKCSDPAASEAQTHTAFPTGDHKQRPSARNLKGHRSLSPSSNSAFSRTSLSVDQAPTPKAGRSQPCVDVHGLGAHPGPKREVVKGEPTGPCNSKQLFGQFLLKPVSRRPWDLISQLESFNKELQEEEESSSSSSSSSSSSEESEAEPQQENRAHCRQEDVGFRGNSPEMRVEPQPRMWVPESPVCRSGRGESKSESWSEELQPGHPRAWPPSPGRFRVEEGGGAPFCSADGSTSAEKRHLEVSNGMDELAGSPFPVTRMSSRSSDAKPLPASYPAEPREPQESPKITSAFSSVKPSEAVPRKFDSGGERGAGLPLSLSNKNRGLSAPDLRSVGLTPGQEQGASELEGSLGEASTIEIPPGESLQARAARILGIEVAVESLLPGIRRAGQNQPAEPDASACTPESPQEELLSRPAPADVPRVSTDAFYGRRKCGWTKSPLFVGDRDSARRAPQAFEHSDVDGVVTSTDPVPEPEPSPLESKFFEQKDVETKPPFRSTLFHFVERTPSVAGSEKRLRSPSKVIESLQEKLASPPRRADPDRLMRMKEVSSVSRMRVLSFRNADSQEDAEELKATTRGQAGLPGGLVSPGSGDRAQRLGHSLSVSKDSISREEKEHPAAQKEKSMDQDFWCPDSYDPSRVERV
B2: JCAD, endogenous in Huh-7 cells (protein, UniProt Q9P266 1-1359)
chain: B1 chain
B3: JCAD, stably overexpressed in SMCC-7721 cells (protein, UniProt Q9P266 1-1359)
chain: B1 chain
B4: JCAD, endogenous in AML12 cells (protein, UniProt Q5DTX6 1-1320)
chain: MYSVEDLLISHGYKPARDAAAPCEDKSERCRSTRTGPRAGQGLLNGYKDGATAHTHSRTSLGTGHVSNSENRISRPRGHREHQSTSRTPEARFLNQPSLAWSSQPQSGRDDIYWSRGRQEGSGSLCPRDWKELESRGMAQAYSLPVHVRENLWEVAGRTEHVMKNAIWEEELRMQDMSLESWKKPRELGRQASDGDGRKRPQEKFEGLYPFVHGEHTSQNRKKSQSLPRALSPKSLNFTEIPVPLHDGHITGVPKVPPYPPSFPSPSEPMRNLEKASSSGPFPRPKFGKPLKTPCYSSHSQPRGEGGFQDHQHRDPRGSYPTRSKDPSHELGMLDPGLEPPVYVPPPSYRSPPQHIPNPYLEDPVPRHVSSNQSQQQVPEKPETSCPLPSGSLAARDLYDAMPGSPPQGLPPQPYPIATHGGSIQYIPFDDPRIRHIKLAQPPEFYEEAKLDDTSYNPGLLTTQEPAIGKRQYDDAPSVPRGPTPSPVNEQSSAFVHSSPRWLQGQLPLGIGPGGFHGQTEHHVMGGLTTNVTDIKAEGHASSPQPQSEGTCKTYTKLRKFETGVQSKKSSKKKSNATIFCLVSIPVKSESLVLATDTNNNDFKLVADKTRGLCQGSALQEQSLLSMSSTDLELQALMGSMAWRRTSPRQGLRESEDGQIDDPRILHLIKPKELQASSPWPGHQYRDQQTQTSFHEDSKSSQLLPATKPGEASNVAPTPTCPDTTASEVCLHTALAFSDQNQKPSVPHLQGQTSLSPSRNSAFSRTSSAINQASMSKGTSDQLPGANPVPKPEVVKGESTTGQCNSTQLFGQFLLKPVSRRPWDLISQLESFNKELQEEEESHGGSGSEDSEAEQPEDCADSRTKSWALQGTRTAQQPAGLALENVASPDRRLNDSQSWNEEPKPGHSSVHPQSLGPSQEEGSRGVPVQWADGSLTAEQKSQEDLNGMCERDFSPRPVSRIAPIDTKAAPLYCLSEPRGSQELTKFGDAVGSVQLGRETPTQVGNGGDTEVLPCVLLPLADKYRGHSTPDFRSLELTLGQEQNAYKLECLDLENTVEVLPSESLQERAERILGIEVAVESLLPSARRTEQSQLPEPDASACNPSSSREDSSHSLALPVGPKVATDAFYGRRKCGWTESPLFVGERAPQASICSDVDGFPTSQATSPEPGKKDEEAKAPFKSTLFHFMEKSTNVVGPEKRLRNPSKVVENLQEKLVSPPKKADSVHLIRMREVNSLSQMRCLSSKSADSVEEPDPLKVIKSSAWLSEGLTSLGGKDEAWQAGHLPSVSQNENGHPEVPRDKMSDQDLWCADSYDPSRVERV
B5: Myc-JCAD, wild type (protein, UniProt Q9P266 1-1359)
chain: B1 chain

Protein sequences, listed by entry. Tags and fused reporters are not part of them.
UniProt Q8IX03: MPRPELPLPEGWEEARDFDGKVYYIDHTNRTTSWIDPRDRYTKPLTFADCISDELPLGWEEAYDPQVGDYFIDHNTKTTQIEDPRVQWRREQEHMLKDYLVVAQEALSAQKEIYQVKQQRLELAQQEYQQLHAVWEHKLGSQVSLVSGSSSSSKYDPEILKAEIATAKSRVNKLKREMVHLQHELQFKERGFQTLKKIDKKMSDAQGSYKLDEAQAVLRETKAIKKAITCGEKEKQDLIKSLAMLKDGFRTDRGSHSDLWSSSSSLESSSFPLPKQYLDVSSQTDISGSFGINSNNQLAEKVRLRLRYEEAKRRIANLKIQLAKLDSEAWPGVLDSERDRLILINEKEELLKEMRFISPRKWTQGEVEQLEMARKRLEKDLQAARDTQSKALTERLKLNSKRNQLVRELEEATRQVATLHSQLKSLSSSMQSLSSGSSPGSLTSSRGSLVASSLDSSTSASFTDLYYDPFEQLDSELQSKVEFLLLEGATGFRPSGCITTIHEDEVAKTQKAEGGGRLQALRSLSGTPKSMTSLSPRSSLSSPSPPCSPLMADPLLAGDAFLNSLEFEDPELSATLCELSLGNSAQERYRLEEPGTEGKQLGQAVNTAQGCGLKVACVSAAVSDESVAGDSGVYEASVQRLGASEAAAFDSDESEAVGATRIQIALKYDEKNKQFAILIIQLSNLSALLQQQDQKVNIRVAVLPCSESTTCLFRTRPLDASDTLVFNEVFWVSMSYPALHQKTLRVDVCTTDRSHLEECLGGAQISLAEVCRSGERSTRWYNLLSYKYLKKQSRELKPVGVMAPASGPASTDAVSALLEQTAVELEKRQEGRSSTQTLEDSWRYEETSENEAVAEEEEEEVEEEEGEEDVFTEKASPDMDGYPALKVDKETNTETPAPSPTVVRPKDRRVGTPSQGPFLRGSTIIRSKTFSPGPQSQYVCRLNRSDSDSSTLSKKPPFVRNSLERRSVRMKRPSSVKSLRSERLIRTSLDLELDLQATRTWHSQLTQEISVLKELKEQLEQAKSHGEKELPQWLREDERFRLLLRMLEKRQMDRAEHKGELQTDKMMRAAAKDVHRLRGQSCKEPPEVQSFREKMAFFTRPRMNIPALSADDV

Key:
Flag-WWC1 [1] = biological target: Flag-WWC1 (UniProt Q8IX03); experiment: co-IP; lysates of cells co-transfected with tagged JCAD and Flag-WWC1 (wild type or mutants) incubated with Flag magnetic beads at 4°C overnight, washed, boiled, immunoblotted; HEK293T named for Figure 8B, cells not named for Figures 8F and 8G
Flag-WWC1 [2] = biological target: Flag-WWC1 (UniProt Q8IX03); experiment: co-IP; Flag-WWC1 transfected into Huh-7, SMCC-7721 with JCAD stably overexpressed, or AML12 cells; Flag-tag immunoprecipitated, JCAD immunoblotted
Flag-WWC1 [3] = biological target: Flag-WWC1 (UniProt Q8IX03); experiment: co-IP; HEK293T cells transfected with Myc-JCAD, HA-LATS2 and Flag-WWC1 together; competition by LATS2 overexpression; Flag magnetic beads

Row | Binder | binding (Flag-WWC1 [1]) | binding (Flag-WWC1 [2]) | binding (Flag-WWC1 [3])
1 | B1 | binds | – | –
2 | B2 | – | binds | –
3 | B3 | – | binds | –
4 | B4 | – | binds | –
5 | B5 | binds | – | binds

Reference: publication PMC10955226
